Reference: patent publication US20250296971A1 (priority 2021, published 2025)

Tests used:
[1] = general procedure: Fmoc solid-phase peptide synthesis; 1,2-diaminoethane trityl resin; details: whole synthesis, scale 50 μmol
[2] = general procedure: Fmoc solid-phase peptide synthesis; Rink amide; details: whole synthesis
[3] = general procedure: Fmoc solid-phase peptide synthesis; Rink amide resin; details: whole synthesis
[4] = general procedure: Fmoc solid-phase peptide synthesis; polystyrene (PS, DEG), ChemMatrix (CM) or TentaGel (TG) resin; linkers trityl, wang and rink amide; details: for isolated mass / isolated yield: whole synthesis; for conjugation yield: conjugation step; for step yield: late stage modification step
[5] = general procedure: Fmoc solid-phase peptide synthesis; Cysteamine-4-methoxytrityl resin; details: whole synthesis
[6] = general procedure: Fmoc solid-phase peptide synthesis; Trityl resin; details: whole synthesis, scale 50 umol, thioether ring
[7] = general procedure: Fmoc solid-phase peptide synthesis; trityl resin; details: whole synthesis, scale 100 μmol
[8] = overall, scale of the general procedure 50 μmol and 100 μmol
[9] = scale 50 umol, one disulfide bridge

DOTA(OtBu)3-Ttds-Asp(OtBu)-Trp(Boc)-5Clw-Pro-Glu(OtBu)-leu-Cys(Mmt)-Aib-Leu-Ile-en-H
isolated mass [1]: 11.6 mg | isolated yield [1]: 10.8%

AGLU-Glutar-Asp-Trp-5Clw-Tap-Glu-leu-[Cys(2Lut)-Apc(NODAGA-Gly)-Leu-Ile-Cys]-APAc-glu(AGLU)-NH2
isolated mass ([2]; scale 50 umol): 11.5 mg | isolated yield ([2]; scale 50 umol): 8.6%

AGLU-Glutar-APAc-Asp-Trp-5Clw-Hyp-Glu-leu-[Cys(2Lut)-Apc(DOTA)-Leu-Ile-Cys]-lys(MeO36PEG)-NH2
isolated mass ([2]; scale 50 umol): 11.86 mg | isolated yield ([2]; scale 50 umol): 5.7%

NTASEROL-Asp-Trp-5Clw-Tap-Glu-leu-[Cys(2Lut)-Apc(DOTA)-Leu-Ile-Cys]-APAc-dap(NTASEROL)-NH2
isolated mass ([3]; scale 100 μmol): 5.52 mg | isolated yield ([3]; scale 100 μmol): 2.0%

H-Met-Tyr-Asp-Trp-Trp-Pro-Glu-Leu-[Cys(3MeBn)-Ala-Leu-Ile-Cys]-Ttds-Lys(Bio)-NH2
isolated mass ([2]; scale 100 umol, thioether ring): 9.38 mg | isolated yield ([2]; scale 100 umol, thioether ring): 15.0%

HO-Succinyl-Trp-1Ni-Pro-Glu-Leu-[Cys(3MeBn)-Aib-Leu-Ile-Cys]-Ttds-Lys(DOTA)-NH2
isolated mass ([2]; scale 50 umol, thioether ring): 15.17 mg | isolated yield ([2]; scale 50 umol, thioether ring): 13.30%

NTASEROL-Asp-Trp-5Clw-Tap-Glu-leu-[Cys(2Lut)-Apc(DOTA)-Leu-Ile-Cys]-APAc-GLUSEROL
isolated mass ([4]; scale 100 μmol): 8.62 mg | isolated yield ([4]; scale 100 μmol): 3.2%

AGLU-Glutar-Asp-Trp-5Clw-Tap-Glu-leu-[Cys(2Lut)-Apc(DOTA)-Leu-Ile-Cys]-APAc-glu(AGLU)-NH2 [GIP-001]
conjugation yield ([4]; yield for coupling of DOTA): 49.5% | isolated yield [4, 8]: 6.7% | isolated mass ([2]; scale 50 umol, run 1): 6.8 mg | isolated yield ([2]; scale 50 umol, run 1): 5.1% | isolated mass ([2]; scale 50 umol, run 2): 1.36 mg | isolated yield ([2]; scale 50 umol, run 2): 1.0% | isolated mass ([2]; scale 100 umol): 43.62 mg | isolated yield ([2]; scale 100 umol): 16.5%

HO-Succinyl-Trp-5Clw-Hyp-Glu-leu-[Cys(2Lut)-Apc(DOTA)-Leu-Ile-AET]
conjugation yield ([4]; yield for coupling of DOTA): 57.2% | isolated yield [4, 8]: 32.0%

DOTA-Ttds-Asp-Trp-Trp-Pro-Glu-leu-[Cys(3MeBn)-Aib-Leu-Ile-AET]
isolated mass ([5]; scale 50 umol, thioether ring): 43.69 mg | isolated yield ([5]; scale 50 umol, thioether ring): 41.4%

Ac-Asp-Trp-5Clw-Hyp-Glu-leu-[Cys(mli)-Thp-Leu-Ile-Hcy]-NH2
isolated mass ([2]; scale 50 umol, thioether ring): 11.16 mg | isolated yield ([2]; scale 50 umol, thioether ring): 13.9%

HO-Succinyl-Trp-5Clw-Hyp-Glu-leu-[Cys(2Lut)-Apc-Leu-Ile-AET]
isolated mass ([5]; scale 100 umol): 83.96 mg | isolated yield ([5]; scale 100 umol): 56.0%

HO-Succinyl-Trp-5Clw-Hyp-Glu-leu-[Cys(2Lut)-Apc(AGLU-Glutar)-Leu-Ile-Cys]-APAc-Lys(DOTA)-NH2
isolated mass ([2]; scale 50 umol): 14.15 mg | isolated yield ([2]; scale 50 umol): 11.4%

AGLU-Glutar-Asp-Trp-5Clw-Tap-Glu-leu-[Cys(2Lut)-Apc(DOTAM)-Leu-Ile-Cys]-APAc-glu(AGLU)-NH2
isolated mass ([4]; scale 50 μmol): 12.3 mg | isolated yield ([4]; scale 50 μmol): 9.3%

AGLU-Glutar-Asp-Trp-5Clw-Hyp-Glu-leu-[Cys(2Lut)-Thp-Leu-Ile-Cys]-APAc-glu(AGLU)-Lys(DOTA)-NH2
isolated mass ([2]; scale 50 umol, thioether ring): 10.29 mg | isolated yield ([2]; scale 50 umol, thioether ring): 7.4%

Ac-Asp-Trp-5Clw-Hyp-Glu-leu-[Cys(2Lut)-Thp-Leu-Ile-Cys]-OH
isolated mass [6]: 34.09 mg | isolated yield [6]: 42.6%

Ac-Asp-Trp-5Clw-Hyp-Glu-leu-[Hey-Thp-Leu-Ile-Hcy]-NH2
isolated mass [2, 9]: 14.19 mg | isolated yield [2, 9]: 18.6%

DOTA-APAc-Asp-Trp-5Clw-Hyp-Glu-leu-[Dap(2Lut)-Thp-Leu-Ile-AET]
isolated mass ([5]; scale 100 umol, cyclic): 10.58 mg | isolated yield ([5]; scale 100 umol, cyclic): 5.2%

AGLU-Glutar-Asp-Trp-5Clw-Tap-Glu-leu-[Cys(2Lut)-Apc(NOPO)-Leu-Ile-Cys]-APAc-glu(AGLU)-NH2
isolated mass ([2]; scale 20 umol): 12.63 mg | isolated yield ([2]; scale 20 umol): 23.0%

4OHPhp-Asp-Trp-Trp-Pro-Glu-leu-[Cys(3MeBn)-Aib-Leu-Ile-Cys]-Ttds-Lys(DOTA)-NH2
isolated mass ([2]; scale 50 umol, thioether ring): 14.21 mg | isolated yield ([2]; scale 50 umol, thioether ring): 11.7%

AGLU-Glutar-Asp-Trp-5Clw-N3Tap-Glu-leu-[Cys(2Lut)-Apc-Leu-Ile-Cys]-APAc-glu(AGLU)-NH2
isolated mass ([2]; scale 100 umol): 30.94 mg | isolated yield ([2]; scale 100 umol): 13.5%

tBuO-Succinyl-Trp-5Clw-Hyp-Glu-leu-Cys-Apc-Leu-Ile-Cys-APAc-Lys(Alloc)-NH2
isolated mass ([3]; scale 50 μmol): 30.8 mg | isolated yield ([3]; scale 50 μmol): 28.1%

H-Asp-Trp-5Clw-N3Tap-Glu-leu-Cys-Apc-Leu-Ile-Cys-APAc-glu(OAll)-Serol
isolated mass [7]: 15.72 mg | isolated yield [7]: 6.8%

HO-Succinyl-Trp-5Clw-Hyp-Glu-leu-[Cys(2Lut)-Apc(MeO10kDaPEGAc)-Leu-Ile-Cys]-APAc-Lys(DOTA)-NH2
conjugation yield [4]: 12.7%

Ac-Asp-Trp-5Clw-Nglu(AGLU)-Glu-leu-[Cys(2Lut)-Thp-Leu-Ile-Cys]-NH2
isolated mass ([2]; scale 100 umol, thioether ring): 30.9 mg | isolated yield ([2]; scale 100 umol, thioether ring): 17.4%

Ac-Asp-Trp-5Clw-Hyp-Glu-leu-[Cys(tMeBn(H-AET))-Thp-Leu-Ile-Cys]-NH2
isolated mass ([2]; scale 100 umol): 41.15 mg | isolated yield ([2]; scale 100 umol): 24.6%

Ac-Asp-Trp-5Clw-Hyp-Glu-leu-[Cys(tMeBn(DOTA-AET))-Thp-Leu-Ile-Cys]-NH2
conjugation yield ([4]; yield for coupling of DOTA, thioether ring): 68.1% | isolated yield ([4]; overall, scale of the general procedure 50 μmol and 100 μmol, thioether ring): 16.7%

AGLU-Glutar-APAc-Asp-Trp-5Clw-Tap(AGLU-Glutar)-Glu-leu-[Cys(2Lut)-Apc(DOTA-glu(AGLU))-Leu-Ile-Cys]-APAc-glu(AGLU)-NH2
isolated mass ([2]; scale 100 umol): 4.16 mg | isolated yield ([2]; scale 100 umol): 1.2%

Ac-Tyr-Asp-Trp-Trp-Pro-Glu-Leu-[Cys(3MeBn)-Ala-Leu-Ile-Cys]-Ttds-Lys(DOTA)-NH2
isolated mass ([2]; scale 50 umol, thioether ring): 10.37 mg | isolated yield ([2]; scale 50 umol, thioether ring): 8.4%

AGLU-Glutar-Asp-Trp-5Clw-N3Tap-Glu-leu-Cys-Apc-Leu-Ile-Cys-APAc-glu(AGLU)-NH2
isolated mass ([3]; scale 50 μmol): 29.95 mg | isolated yield ([3]; scale 50 μmol): 26.10%

DOTA-Ttds-Tyr-Asp-Trp-Trp-Pro-Glu-Leu-[Cys(3MeBn)-Ala-Leu-Ile-Cys]-NH2
isolated mass ([2]; scale 50 umol, thioether ring): 16.11 mg | isolated yield ([2]; scale 50 umol, thioether ring): 14.0%

DOTA-glu(AGLU)-APAc-Asp-Trp-5Clw-Hyp-Glu-leu-[Cys(2Lut)-Thp-Leu-Ile-Cys]-APAc-glu(AGLU)-NH2
step yield ([4]; thioether ring): 77.1%

AGLU-Glutar-Asp-Trp-5Clw-Tap-Glu-leu-[Cys(2Lut)-Apc(NODAGA)-Leu-Ile-Cys]-APAc-glu(AGLU)-NH2
step yield [4]: 75.10%

AGLU-Glutar-Asp-Trp-5Clw-Tap-Glu-leu-[Cys(2Lut)-Apc(DOTA)-Leu-Ile-Cys]-APAc-glu(AGLU)-NH2
step yield [4]: 63.6%

AGLU-Glutar-Asp-Trp-5Clw-Hyp-Glu-leu-[Cys(2Lut)-Apc-Leu-Ile-Cys]-APAc-glu(AGLU)-NH2
isolated mass ([2]; scale 100 umol): 31.04 mg | isolated yield ([2]; scale 100 umol): 13.7%
